In PubChem BioAssay AID2551 (National Center for Advancing Translational Sciences (NCATS), 2010):
In all, about 310,000 compounds went through this assay and about 17,000 (5.5%) were called active. This list was built around the results that the source calls inconclusive (neither active nor inactive); the mix of calls is not that of the screen. Calls follow the shape of the dose curve; as a rule, active = well fitted inhibition curve with a large enough effect; inconclusive = small, poorly fitted or top-dose-only effect, or effect the other way; inactive = no such curve, though single readings can be large or run the other way. A potency beside an inconclusive call is a rough fit, not a confirmed value.

Sequences of proteins named here, by UniProt entry; tags and fusion partners are left off. A change or cut given only in a name is not applied to a line headed by its entry.
UniProt P51450: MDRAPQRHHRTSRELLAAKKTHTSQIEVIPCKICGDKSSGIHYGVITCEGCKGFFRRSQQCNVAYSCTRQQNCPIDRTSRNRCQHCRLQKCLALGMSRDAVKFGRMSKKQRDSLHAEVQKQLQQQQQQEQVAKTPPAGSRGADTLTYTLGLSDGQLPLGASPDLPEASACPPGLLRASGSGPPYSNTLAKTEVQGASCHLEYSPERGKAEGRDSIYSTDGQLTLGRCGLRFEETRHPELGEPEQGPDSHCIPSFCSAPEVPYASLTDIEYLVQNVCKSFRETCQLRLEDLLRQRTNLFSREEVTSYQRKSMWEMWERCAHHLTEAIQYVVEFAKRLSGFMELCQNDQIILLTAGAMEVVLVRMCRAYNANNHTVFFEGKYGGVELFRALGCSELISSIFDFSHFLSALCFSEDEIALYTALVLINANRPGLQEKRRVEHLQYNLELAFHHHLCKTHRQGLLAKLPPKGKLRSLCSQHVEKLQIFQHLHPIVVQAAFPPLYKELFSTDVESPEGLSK

target: Nuclear receptor ROR-gamma (Mus musculus) (UniProt P51450); assay: qHTS for inhibitors of ROR gamma transcriptional activity; settings: Drosophila S2 Gal4-RORgamma UAS-luciferase reporter, 20 h; series mostly up to 53.6 µM; also: nearly all actives have a fitted effect of over 60% in size
Outline: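 Luminescence from a UAS-regulated Photinus luciferase reporter in stably transfected Drosophila Schneider cells is measured; decreased signal marks ROR gamma inhibition. Fusion expression is induced by 700 uM copper sulfate for 20 hr.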
Potency is read from the fitted curve at half-maximal effect.

Row | Structure (SMILES) | Potency
1 | COc1ccc(-c2oc3ccccc3c(=O)c2O)cc1 | inconclusive: 2.82 µM [inhibitor, full curve]
2 | O=C(COc1ccccc1)Nc1ccc(S(=O)(=O)NCc2ccco2)cc1 | inactive
3 | Cc1c(C(=O)NCCO)[n+](=O)c2ccccc2n1[O-] | inactive
4 | COc1ccc(-c2nc3c4ccccc4ccn3c2CN2CCOCC2)cc1OC | inconclusive: 1.41 µM [inhibitor, partial curve]
5 | COc1cc2[nH]c3c(N4CCN(c5ccccn5)CC4)ncnc3c2cc1OC | inconclusive: 35.5 µM [inhibitor, single point]
6 | COc1ccc(/C=N/OCC(=O)N2CC3(C)CC2CC(C)(C)C3)cc1 (centres undefined) | inactive
7 | O=C(CNC(=O)/C(=C\c1ccc(F)cc1)NC(=O)c1ccccc1)OCc1ccccc1 | inconclusive: 35.5 µM [activator, single point]
8 | O=C(Nc1ccc(Cl)c(Cl)c1)Nc1cc(S(=O)(=O)N2CCOCC2)ccc1N1CCCC1 | inconclusive: 35.5 µM [activator, single point]
9 | CCc1nnc(NC(=O)CSc2nnc(Cc3ccccc3)o2)s1 | inconclusive: 22.4 µM [activator, single point]
10 | CSc1nc2ccccc2n1Cc1c(Cl)cccc1Cl | inconclusive: 15.8 µM [inhibitor, single point]
11 | CSc1ccccc1NC(=O)c1noc2c1CCC2 | inconclusive: 35.5 µM [inhibitor, single point]
12 | CS(=O)(=O)N(CC(=O)Nc1ccc2c(c1)OCO2)c1ccc(Cl)cc1 | inconclusive: 14.1 µM [inhibitor, single point]
13 | O=C(Nc1c(C(=O)Nc2cccc3ccccc23)cnn1-c1ccccc1)c1ccco1 | inconclusive: 12.6 µM [activator, partial curve]
14 | CN(C)c1ccc(-c2nnn(CC(=O)Nc3ccccc3N3CCOCC3)n2)cc1 | inactive
15 | Cc1noc(C)c1S(=O)(=O)N1CCCC(C(=O)NCCc2ccc(Cl)cc2)C1 (centres undefined) | inconclusive: 2.24 µM [activator, full curve, poor fit]
16 | CC(=O)NC1C(=O)N(CCc2ccccc2)c2ccccc21 (centres undefined) | inconclusive: 20 µM [activator, single point]
17 | Cc1ccc(C(=O)NCCSC(C)(C)C)cc1 | inconclusive: 12.6 µM [inhibitor, single point]
18 | S=C(Nc1nc2c(s1)CCCC2)NC1CC1 | active: 1.26 µM
19 | CSc1ccc(CNC(=O)C(C)n2nc(C)c3c(C)n(-c4ccccc4)nc3c2=O)cc1 (centres undefined) | inactive
20 | Clc1ccc2nc(CN3CCCc4ccccc43)cn2c1 | inconclusive: 15.8 µM [inhibitor, single point]
21 | O=C(N/N=C/c1cn(-c2ccccc2)nc1-c1cccnc1)c1cccnc1 | active: 14.1 µM
22 | Cc1cc(OCC(O)CNC(C)c2ccccc2)ccc1C(C)C (centres undefined) | inconclusive: 10 µM [inhibitor, partial curve, poor fit]
23 | O=C(NCc1ccco1)c1ccc(Br)c(S(=O)(=O)N2CCCCC2)c1 | inconclusive: 11.2 µM [activator, single point]
24 | Nc1c(C(=O)NCc2ccccc2)c2nc3ccccc3nc2n1CCCN1CCOCC1 | inactive
25 | c1ccc(-c2nnc3sc(Cc4cccs4)nn23)cc1 | inconclusive: 35.5 µM [activator, single point]

Part of the list above, reformatted:
Row,Structure (SMILES),Potency
3,Cc1c(C(=O)NCCO)[n+](=O)c2ccccc2n1[O-],inactive
4,COc1ccc(-c2nc3c4ccccc4ccn3c2CN2CCOCC2)cc1OC,"inconclusive: 1.41 µM [inhibitor, partial curve]"
5,COc1cc2[nH]c3c(N4CCN(c5ccccn5)CC4)ncnc3c2cc1OC,"inconclusive: 35.5 µM [inhibitor, single point]"
6,COc1ccc(/C=N/OCC(=O)N2CC3(C)CC2CC(C)(C)C3)cc1 (centres undefined),inactive
7,O=C(CNC(=O)/C(=C\c1ccc(F)cc1)NC(=O)c1ccccc1)OCc1ccccc1,"inconclusive: 35.5 µM [activator, single point]"
8,O=C(Nc1ccc(Cl)c(Cl)c1)Nc1cc(S(=O)(=O)N2CCOCC2)ccc1N1CCCC1,"inconclusive: 35.5 µM [activator, single point]"
9,CCc1nnc(NC(=O)CSc2nnc(Cc3ccccc3)o2)s1,"inconclusive: 22.4 µM [activator, single point]"
10,CSc1nc2ccccc2n1Cc1c(Cl)cccc1Cl,"inconclusive: 15.8 µM [inhibitor, single point]"
11,CSc1ccccc1NC(=O)c1noc2c1CCC2,"inconclusive: 35.5 µM [inhibitor, single point]"
12,CS(=O)(=O)N(CC(=O)Nc1ccc2c(c1)OCO2)c1ccc(Cl)cc1,"inconclusive: 14.1 µM [inhibitor, single point]"
13,O=C(Nc1c(C(=O)Nc2cccc3ccccc23)cnn1-c1ccccc1)c1ccco1,"inconclusive: 12.6 µM [activator, partial curve]"
14,CN(C)c1ccc(-c2nnn(CC(=O)Nc3ccccc3N3CCOCC3)n2)cc1,inactive
15,Cc1noc(C)c1S(=O)(=O)N1CCCC(C(=O)NCCc2ccc(Cl)cc2)C1 (centres undefined),"inconclusive: 2.24 µM [activator, full curve, poor fit]"
16,CC(=O)NC1C(=O)N(CCc2ccccc2)c2ccccc21 (centres undefined),"inconclusive: 20 µM [activator, single point]"
17,Cc1ccc(C(=O)NCCSC(C)(C)C)cc1,"inconclusive: 12.6 µM [inhibitor, single point]"

Following part

Row | Structure (SMILES) | Potency
26 | COCc1cc(=O)n2[nH]c(-c3ccccc3)cc2n1 | inactive
27 | Cc1ccc(OCCn2cnc3c2c(=O)n(C)c(=O)n3C)cc1 | inconclusive: 12.6 µM [activator, single point]
28 | O=C(Nc1cccc([N+](=O)[O-])c1)c1ccc(CN2CCOCC2)cc1 | inconclusive: 12.6 µM [activator, partial curve]
29 | COCCCNC(=S)Nc1ccc2nc(N3CCOCC3)cc(C)c2c1 | inconclusive: 12.6 µM [inhibitor, single point]
30 | CCC/C=C1/CCCOC(C(=O)NCc2ccc(S(C)(=O)=O)cc2)(C(F)(F)F)C1 (centres undefined) | inconclusive: 20 µM [activator, single point]
31 | CC1(C)Cc2c(sc3nc(NCCN4CCOCC4)n4ncnc4c23)CO1 | inconclusive: 5.62 µM [inhibitor, single point]
32 | CN(Cc1cn(-c2ccccc2)nc1-c1ccc(Cl)cc1)C(=O)CCC(=O)O | inconclusive: 11.2 µM [activator, partial curve]
33 | O=C(N/N=C/c1ccc(Cl)cc1Cl)Nc1ccccc1 | inconclusive: 25.1 µM [inhibitor, single point]
34 | CN(C)CC(CCC(CN(C)C)C(=O)c1ccccc1)C(=O)c1ccccc1 (centres undefined) | active: 7.08 µM
35 | O=c1cc(CSc2nnc(-c3cccs3)n2Cc2ccccc2)nc2sc3ccccc3n12 | inconclusive: 5.62 µM [activator, single point]
36 | CCc1cccc(CC)c1NC(=O)CCCSc1nc2ccccc2s1 | inconclusive: 17.8 µM [inhibitor, partial curve]
37 | CCc1ccc(Nc2ccc(C(N)=O)cc2[N+](=O)[O-])cc1 | inconclusive: 22.4 µM [activator, single point]
38 | O=C(COc1ccc2ccccc2c1)Nc1nc2ccccc2[nH]1 | inconclusive: 35.5 µM [inhibitor, single point]
39 | Cc1nn(-c2ccccc2)c2[nH]c(=O)cc(C(F)(F)F)c12 | inconclusive: 17.8 µM [activator, partial curve]
40 | O=C(CN1CCCC(O)C1)N1c2ccccc2Sc2ccc(C(F)(F)F)cc21 (centres undefined) | inconclusive: 11.2 µM [activator, single point]
41 | CCOC(=O)c1cnc2ccc(C(=O)OC)cc2c1NCCN1CCOCC1 | inactive
42 | Cc1ccc2nc(/C=C/c3cccc(F)c3)ccc2c1 | active: 10 µM
43 | O=[N+]([O-])c1cc(-c2cnc3ccccc3n2)ccc1Oc1ccc(F)cc1 | inconclusive: 141 µM [activator, partial curve, poor fit]
44 | CC1CC=C(c2ccccc2)C(=S)N1 (centres undefined) | active: 1 µM
45 | CC(=O)c1c(C(=O)O)[nH]c(C(=O)O)c1C | inactive
46 | CCOC(=O)CNC(=O)CSc1nc(-c2ccccc2)ns1 | inconclusive: 1.12 µM [activator, single point]
47 | COCCCNC(=O)c1cn(Cc2c(F)cccc2Cl)nn1 | inconclusive: 5.01 µM [activator, full curve]
48 | CC(=O)c1ccc(NC(=O)CN(C)CC(=O)Nc2cccc(F)c2)cc1 | inconclusive: 11.2 µM [activator, partial curve, poor fit]
49 | CC1CCN(S(=O)(=O)c2ccc(C(=O)Nc3nnc(-c4ccco4)o3)cc2)CC1 | active: 0.355 µM
50 | CC(=O)Oc1ccc(/C=C2/Oc3ccccc3C2=O)cc1 | inactive

Row | Structure (SMILES) | Potency
51 | Cc1ccnc(NC(=O)c2ccccc2NC(=O)C(C)(C)C)c1 | inactive
52 | Oc1ccc(N=Nc2nccs2)c(O)c1 | active: 7.08 µM
53 | CCOc1ccc2c(c1)C(=NNC(=O)c1ccncc1)c1cc(OCC)ccc1-2 | active: 1.12 µM
54 | Cc1cc(N)n(Cc2ccc(Cl)cc2)n1 | inactive
55 | CNCc1c(OCc2ccccc2)ccc2ccccc12 | inactive
56 | CCN(CC)CCNC(=O)c1ccc(NC(=O)c2cn(-c3ccc(F)cc3)nc2-c2cccc(OC)c2)cc1 | inconclusive: 35.5 µM [inhibitor, single point]
57 | O=S(=O)(c1ccccc1)c1cnn(-c2ccccc2)c1-c1ccc(F)cc1 | inactive
58 | Cc1cc(C)cc(NC(=S)Nc2ccc3cn[nH]c3c2)c1 | inconclusive: 12.6 µM [inhibitor, single point]
59 | COCCCNC(=O)c1sc2ncn(CC(=O)Nc3ccc(C)c(Cl)c3)c(=O)c2c1C | inconclusive: 15.8 µM [activator, single point]
60 | O=C1CCCN1CCC(=O)N1CCCC(CO)(Cc2ccccc2)C1 (centres undefined) | inconclusive: 3.98 µM [activator, single point]
61 | O=C(NNc1ccccc1Cl)C(O)(c1cccc(C(F)(F)F)c1)c1cccc(C(F)(F)F)c1 | inconclusive: 12.6 µM [inhibitor, single point]
62 | N#CC1=C2SCN(Cc3ccccc3)CN2C(=O)CC1c1ccc2c(c1)OCO2 (centres undefined) | inactive
63 | Nc1cc(N)nc(SCCOc2ccccc2)n1 | inconclusive: 10 µM [activator, partial curve]
64 | CCN(CC(O)CON=C1c2ccccc2-c2ccccc21)S(=O)(=O)c1ccc(C)cc1 (centres undefined) | inactive
65 | S=c1[nH]nc(-c2ccncc2)n1/N=C/C=C/c1ccccc1 | active: 2.82 µM
66 | O=C(Nc1ccccn1)c1ccc(-c2ccccc2)cc1 | inconclusive: 3.98 µM [inhibitor, partial curve]
67 | O=C(c1ccco1)n1c(=S)nc2ccccn21 | inconclusive: 3.55 µM [activator, single point]
68 | Cc1cc(C)c(NC(=O)CN2C(=O)NC3(CCCCC3)C2=O)c(Cl)c1 | inactive
69 | O=C(N/N=C/c1c(Cl)[nH]c2ccccc12)c1sc2ccccc2c1Cl | inconclusive: 22.4 µM [inhibitor, single point]
70 | COC(=O)CC1COc2ccccc2N1C(=O)c1ccc(OC)cc1 (centres undefined) | inactive
71 | CCC(=NCc1ccccc1)c1c(C(F)(F)F)[nH]n(-c2nc3ccccc3s2)c1=O | active: 8.91 µM
72 | COC(=O)c1sccc1NC(=S)Nc1ccccc1 | active: 15.8 µM
73 | O=C(CSc1nnnn1-c1ccccc1)NCc1ccco1 | inconclusive: 0.355 µM [inhibitor, single point]
74 | O=C(Nc1ccc2c(c1)oc1ccccc12)c1ccc2c(c1)OCO2 | inconclusive: 35.5 µM [inhibitor, single point]
